Experimental data taken from US20170137753A1, “DELIVERY SYSTEMS COMPRISING MALODOR REDUCTION COMPOSITIONS” (The Procter & Gamble Company, priority 2014, published 2017).

Assay: Fragrance Fidelity Index (FFI), expert graders, treated fabric swatch against ethyl vanillin reference scale
[1] = Conc 10 ppm test material on clean swatch
[2] = Conc 50 ppm test material on clean swatch

Compound: O=C1CCC2CCCCC2O1 (stereo not drawn) [3,4,4a,5,6,7,8,8a-octahydrochromen-2-one]
- FFI [1]: 0
- FFI [2]: 0

Compound: CC(C)(C)C1CCCCC1 [4-tert-butyl cyclohexane]
- FFI [1]: 0
- FFI [2]: 0.3

Compound: CCCCCCCCCCCCO [Material 174]
- FFI [2]: 0.5

Compound: CC(=O)OCCCCCCC(C)C [Material 204]
- FFI [1]: 0
- FFI [2]: 0

Compound: CC1(C)CCc2ccc(CCC=O)cc21 [Material 261, 3-(3,3-dimethyl-2,3-dihydro-1H-inden-5-yl)propanal]
- FFI (Conc 50 ppm test material on clean swatch, listed as 1H-Indene-5-propanal, 2,3-dihydro-3 ,3-dimethyl-): 0.5

Compound: CC1(C)CCc2ccc(CCC=O)cc21 [Material 261]
- FFI [2]: 1.3

Compound: CC(=O)OC1CC2CC1C1CC=CC21 (stereo not drawn) [Material 281]
- FFI [1]: 0
- FFI [2]: 0.5

Compound: CCCCCCCCCCCC(=O)OCC [Material 391]
- FFI [2]: 0.3

Compound: C=CC(C)=CCC=C(C)C [Material 524]
- FFI [2]: 0

Compound: CCC(O)COC1CCCCC1C(C)(C)C (stereo not drawn) [Material 677]
- FFI [1]: 0
- FFI [2]: 1.8

Compound: CC(CCO)CCc1ccccc1 (stereo not drawn) [Material 962]
- FFI [1]: 0
- FFI [2]: 0.5

Compound: CCOC(=O)OC1C(C)CCC(C)C1C (stereo not drawn) [Material 1005]
- FFI [2]: 0.5

Compound: COC(=O)OC1CC/C=C\CCC1 (stereo not drawn) [Material 1139]
- FFI [1]: 0
- FFI [2]: 1.0

Compound: C=C1CCC2OC2(C)CCC2C1CC2(C)C (stereo not drawn) [Material 1148]
- FFI [2]: 0.5

Compound: CC1(C)C2CCC3(C2)C1C(=O)CCC3(C)C (stereo not drawn) [Material 1149]
- FFI [1]: 0
- FFI [2]: 0.8

Compound: CCCCCCCCCCCO [Undecanol]
- FFI [2]: 0.8
